Some of the results follow.

In this test the test system is T1, CTL2-GFP (C. trachomatis L2/434/Bu, GFP-expressing).
T1 construct: L2/434/Bu, GFP-expressing
Details: species or system HeLa; Intracellular C. trachomatis growth in HeLa cells, bulk GFP fluorescence relative to DMSO. Conditions: bulk GFP, single well; 28.5 h, 10 µM; inhibitor.
Turning to `CN1C(=O)CC2(C1=O)C(=O)N(CC(=O)c1ccccc1)c1ccc(F)cc12` (stereo not shown) [CBK075420], the “% of control remaining” value came out at 157.015%.

As to `CC(C)Cc1ccc(C(C)c2nc3ccccc3[nH]2)cc1` (stereo not shown) [CBK261484], the “% of control remaining” value was determined as 104.057%. Under `O=C(Nc1cccc(Cl)c1)C1CCC(C(=O)Nc2cccc(Cl)c2)CC1` (stereo not shown) [CBK269136] stands 131.931%; under `O=C(c1ccccc1NS(=O)(=O)c1cccc2cccnc12)N1CCOCC1` [CBK043338], 93.4861%; under `O=C(CN1CCCC2(CCN(C(=O)c3cc(F)c(F)cc3F)C2)C1)Nc1ccc(F)c(Cl)c1` (stereo not shown) [CBK132008], 113.813%. As to `CCOC(=O)CC1C(=O)NCCN1Cc1cccc(C)n1` (stereo not shown) [CBK269965], the “% of control remaining” value is given as 97.1216%. As to `CCN(C(C)COC)S(=O)(=O)c1ccc(-n2ncc(Cl)c(Cl)c2=O)cc1` (stereo not shown) [CBK305662], the “% of control remaining” value is 28.501%. For `CN(C)c1ccc(C(=O)N2CCC(c3cc4ncccc4[nH]3)CC2)cc1` [CBK284459], the “% of control remaining” value was 127.944%.

For the compound `O=C1c2ccccc2NC(c2cccc(O)c2)N1O` (stereo not shown) [CBK288426], the “% of control remaining” value is reported as 107.405%. Next, `S=C1NCN(Cc2ccccc2)CN1c1ccccc1` [CBK263536]: 100%; `O=C(Oc1c(Cl)cc(Cl)c2cccnc12)c1cc(S(=O)(=O)N2CCCCC2)ccc1Cl` [CBK264518]: 100.961%; `COCCNC(=O)NCCCn1c(-c2ccncc2)nc2cccnc21` [CBK288581]: 134.482%. Under `CCn1nc2c(c1C(=O)Nc1cccc(CCc3ccncc3)c1)CCCC2` [CBK285561] stands 91.4121%. On to `Cc1cc(C)n(CC(O)CN(Cc2ccco2)CC2CC=CCC2)n1` (stereo not shown) [CBK283159], for which the “% of control remaining” value stood at 123.502%. For `Cc1ccc(S(=O)(=O)N(C)CC(=O)O/N=C(\N)c2cccnc2)cc1` [CBK266717], the “% of control remaining” value amounted to 116.91%. Next, `CCOCCC(=O)NC1CCCc2nc(N3CCC(CO)CC3)ncc21` (stereo not shown) [CBK306624]: 95.0336%; `CCOc1ccc(OCC)c(S(=O)(=O)n2nc(C)cc2C)c1` [CBK264024]: 100%; `Cc1cc(NC(=O)c2ccco2)nc2c1c(=O)oc1ccccc12` [CBK291124]: 116.003%.

`N#CCn1c(-c2nonc2N)nc2ccccc21` [CBK050974]: the “% of control remaining” value stood at 118.689%. `COC(=O)c1sccc1S(=O)(=O)n1ccc2ccc(Br)cc21` [CBK003528]: the “% of control remaining” value is recorded as 115.531%. With `Cc1ccc(OC(C)C(=O)NCCCN2CCOCC2)cc1C` (stereo not shown) [CBK268109], the “% of control remaining” value came to 132.497%. For `O=C(O)[C@H]1CN(C(=O)CCc2ccco2)C[C@@H]1c1ccc(F)cc1` [CBK283722], the “% of control remaining” value was 124.359%.
